In PMC10127613 (mBio, 2023):

Molecular target: T1, Clr (Sinorhizobium meliloti) (UniProt Q92SD2)
T1 sequence (looked up): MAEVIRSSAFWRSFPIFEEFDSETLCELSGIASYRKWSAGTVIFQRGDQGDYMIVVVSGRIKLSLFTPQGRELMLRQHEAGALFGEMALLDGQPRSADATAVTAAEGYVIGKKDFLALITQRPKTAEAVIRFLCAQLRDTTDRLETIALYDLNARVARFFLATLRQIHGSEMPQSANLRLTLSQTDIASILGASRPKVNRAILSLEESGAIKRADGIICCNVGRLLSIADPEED
Experiment: EMSA
Settings: 1 mM cAMP, EMSA: 2 mM HEPES pH 7.0, 30 mM NaCl, 50 mM KCl, 850 ng salmon sperm DNA, 1 ug BSA, 20 ng Cy3-DNA, 3 ug Clr in 10 uL, room temperature, recombinant protein, residues 1-234, protein details: C-terminal His6 (pET36b, NdeI/XhoI), label: 5'-Cy3 on reverse strand

| Sequence | binding result |
| --- | --- |
| AGCGGATAACAATTTCACACAGGAAACAGCATATGACCATGATTACGCCAAGCTCGAAATTAACCCTCACTAAAGGGAACAAAAGCTGGAGCTCTTAAGCTTGCCGGCTGTTCTAACAATAGGGCCGACTTCCTGTCACGCAATGGGCGGATACGATTCGCCGTGTTTGGCCGGTGAAATATGGGGTTCTTCAGTGTTCTCCCGTTGGCCCCTTGAAGCACGGCCGACGGCTTGCTAACCGAATCGGTCGCCGAAGGCACATGGCGATCATGGTTCTCTCTAAGATCCAGGCAAACCATAGCCACTGCGGCTGGCCGAAAGCCGTGATTTACGAACTTAACAAACTTGACGAACTGTCCCATCCTGCCTAAGTTATAGCGCAGGAGGCCGAAGACCATGCCCGCGACGAAGACTCTATCTAGACTGCAGATGGTGAGCAAGGGCGAGGAGCTGTTCA (double strand) [SMa1924] | no binding |
| AGCGGATAACAATTTCACACAGGAAACAGCATATGACCATGATTACGCCAAGCTCGAAATTAACCCTCACTAAAGGGAACAAAAGCTGGAGCTCTTAAGCTTGCTTACAGGCCAACTGGCTTTTTTCTTTGCAGCGCTCCTGCGGCAAAGCACGTTTCCTGAATTTCCCTGGTTCCTGCGAATCACGCCTGCGAGGTTTGCCGCACCTCACCGGCGTGGCTCGCTTTTGCGCGCGATTCCAAGGGATTAGGGTTCGGATCGTAACCCTTTGTTAAACTTAACAACCTATCAATATTTGATCATCCGCAAGGCTGGTTACGAGCTTCTCCCATTGACGCCCATTTGGTCCCATGTTATCCCATAATGGTACTGCGCAAGGGCCGTGCAATGGCCCGCCATCGCGAAATTCGAGGCTTCCGTCGATGGAAGGATCAGGCGGGCACGCACGTGCCCGGCGGGGGATCTTTGCGCGGTCGTGCGAGTGTATGTGCGGGCCGATGATCGTGGCCCGTCAATCGGGGGCGGCCGTTTCGCGTCATGAACCGCTTCTTGTCACATGTTACGAACCGGATCGATGCCTCTAGACTGCAGATGGTGAGCAAGGGCGAGGAGCTGTTCA (double strand) [SMc01857] | no binding |
| AGCGGATAACAATTTCACACAGGAAACAGCATATGACCATGATTACGCCAAGCTCGAAATTAACCCTCACTAAAGGGAACAAAAGCTGGAGCTCTTAAGCTTGGACCAGATCACCCGCAAAGCCTTCGCCTTCTTGCGGGACGGCGAGCGCAAGCCCGCCATATTGTGGGTCCTTGCCAACCAGGACCTGGCGGAACTCTTCGACCGCGTCGCGCATTTCGAAAACGGGCGGTTGGCGCGCGACGAACCGGTGGAAACGCATGCAAGAGACAGCGACTACAAGGAACTGGCATCTTGATGTAATATTGTTGTCAGGAGGCAAGCATATGTTCCCGCCGGCACGGGATAGGACCTGTTTGCACCAACCGCGACGCATTCGGAGAACCGGACTGTTATGCTCCTAAAACTAGACTGCAGATGGTGAGCAAGGGCGAGGAGCTGTTCA (double strand) [SMb21270] | binds more weakly |
| AGCGGATAACAATTTCACACAGGAAACAGCATATGACCATGATTACGCCAAGCTCGAAATTAACCCTCACTAAAGGGAACAAAAGCTGGAGCTCTTAAGCTTGGTCAGCCCTTGTATCGGTCGAAAGACGTGTGCCGCAACGTTCCTGTGGGACGCCGACAAGGGGCCGCCGCTCTTCACGCCCAGCGACATAGGTAACAGAAGGCAGTCGCTTCATCCTGCCGTTCCCCGATGGGGTAAACGCGCGCCCTAGAGTTCCGCGAGGAACAGCCAAAACCAATCAGACATGGGATAATAACGGCCATTAGTGCAACTGATACTATGTGATAGCCAGATTAAAAAGTGCCTTCTCTTTTAAACAAAGATTTACTGGAGGGATACTCATATGGCACTAGACTGCAGATGGTGAGCAAGGGCGAGGAGCTGTTCA (double strand) [SMb20905 / SMb20906] | binds |
| AGCGGATAACAATTTCACACAGGAAACAGCATATGACCATGATTACGCCAAGCTCGAAATTAACCCTCACTAAAGGGAACAAAAGCTGGAGCTCTTAAGCTTGTCGTGGCCCTGACTGATGTCGGCAGAGGTAACGAGGTCGCGCACGGCTATGGCATCGGAAAGGCCGTCGGATGTCTTCGCCACCGGCACGGTTCCGGTCGAGACCGAACGATCGACGCCCGATCCCCCGAAGACGTCGAGGCCCGCGCCCATGCACCCCGGCAGAGCGAGAATCGTCACGCAAATTGCCGCGCTGCGCAGCAATGCGAAGGAAAGACCCTTCTTGCCATCGTTCCGCTTTGCTATGTCTTGCACGGCAATCCTGTCAGACTCGCCAGAGCGCACCACGTCCCGAGGAAGTCCGCAGGCAGGCTCTGACATTATTACGATGCGGAAACACCACTCGGGCTCATCCCGAAGCGTTCCCGCGCCAGACACACGGCATTGGAAAACAATATGACCGCGAACGAGTTATCTAGACTGCAGATGGTGAGCAAGGGCGAGGAGCTGTTCA (double strand) [pdxH] | no binding |
| AGCGGATAACAATTTCACACAGGAAACAGCATATGACCATGATTACGCCAAGCTCGAAATTAACCCTCACTAAAGGGAACAAAAGCTGGAGCTCTTAAGCTTTACCGCGATCGCACTCCGATCACGGCACCCGCTCGCTTCGCGTGGGGCTGTCCGCATCCAGCCCACGATCGCCGATGCCCAAATCCTCCCGGTCGGACCGAGGCGATACCACGTGCAGAATGCCACAACGAGATAATAATTCAATTTGATTTATTTATTGACACGGTGGATTTTTGATGCTTGATTGACCATCGGAAGCGCCGTCTGCAGCTGAGGAGAATGCTGCAGCGGGTCCTGAAGCCGGCGCGCCGGCATTTTTCATCCTTGGGAGGATTTAATGAAGAAGACAGTTCTTTCTGCCGCATTCGGCTCTAGACTGCAGATGGTGAGCAAGGGCGAGGAGCTGTTCA (double strand) [frcB] | no binding |
| AGCGGATAACAATTTCACACAGGAAACAGCATATGACCATGATTACGCCAAGCTCGAAATTAACCCTCACTAAAGGGAACAAAAGCTGGAGCTCTTAAGCTTTATCGGTACAGCTTTCCGCACCGCAGACAATCGCCGCAACGGCAATGAACAGGATCGACGTCAACGGATGGCGCGCATTGCGACCGCGCGGATCGGGCAAATCTTCAAAGCAAGCGGCAAATCTACTCATCGAGACCTCCAAGTCAGCGGAGAACTCCAAGAATCGATTTGCCGCAACAAAACAACCGCTTATTTTGCTAAATGCGATTCCCCTGGGTGGTGGGGGGGGCGGTCAAGTTACAGTTACGTAATGAGCATCACTCTTGGATGAGCAAAAGTGACAAATCGTCAAACGCTTTCGACCGGTGCCGGGTGTTATCTTGGTAACCGCAGCATCCGTAGGAGGCTCGTATGCTGAACAGTAGCATCCATTGGGAGGTGGGATGCCTAACGGACATAGGAGTTAATGCCATGAGAGTTTCTCTGTCTAGACTGCAGATGGTGAGCAAGGGCGAGGAGCTGTTCA (double strand) [SMc05008] | binds |
| AGCGGATAACAATTTCACACAGGAAACAGCATATGACCATGATTACGCCAAGCTCGAAATTAACCCTCACTAAAGGGAACAAAAGCTGGAGCTCTTAAGCTTTCCGGCACGCACATTAAGGTCCGTCAGCGTCGTTGCGCTCATTTCGGCATAGGCTGCGGGAATGGCGGCGAGCATCGCACCGGCTGCCAAAGCCGCTCTGAGCGAGGCCGCTTTGAACAGAGTCGGAGAGAGAGTCTTCATCATCTTGCTCCTCTTTCATTTGCAGGCCAGAACGCGCCGCGCCTCAGGGATGTTCCCCCCGTGACATCACGAAATGTGAGGATGAAACATATTGCCGTCGTCAAGCGTTGCCCGGGCTGACGGAAGCTGACGAAGTCTTCCCTATATTGTTCGCCGGCAATGCGCGGCCGATTTATCGATTTCTGCCCGACACAGGCTGGCTCCAGCCGGGAGTGACGAGATGCAAGGTGAGTTATCGGACGATGCCTCTAGACTGCAGATGGTGAGCAAGGGCGAGGAGCTGTTCA (double strand) [SMc01589 / SMc01590] | binds |
| AGCGGATAACAATTTCACACAGGAAACAGCATATGACCATGATTACGCCAAGCTCGAAATTAACCCTCACTAAAGGGAACAAAAGCTGGAGCTCTTAAGCTTTCGACTATTGCCCTGCCGATGCGTCGGGCGCCGCCGGTAACGAGCGCCGCCTTGAGTGTCCTTTTCAACGTTTCGTCCCGTTCTTCGAATCCTGATGCCGAGTGGCAGAAGATATAGGCTGGAAACGCTCGCCGGAACTCTCGCCGGACGATTCATTTCTGAAAAATTAACGCGGAAGCCGTAATTTGCATCAGTTTGTATTGCTATAGTATATCTTTCGTTAATATTGAATCGTGGTTAATAAAGTACCTGTGTCTGCGCTGCAACATCGCATTTCAGTCGCGTTGCCGCCACTAAAATTTCACATTTTGGCTCTTGAGATTCCTCATTTCCTGATCAATTTCGGGTCAACCGGGCGGGTTAATTGCAGATGTCCGGTGTTCCGCTGAGAAACAACTAAAACGGAACGCCGGTTCGAAAGGAGAATAGTATGCGTACGCTCACCACCTCTAGACTGCAGATGGTGAGCAAGGGCGAGGAGCTGTTCA (double strand) [ropB1 / SMc00603] | binds more weakly |
| AGCGGATAACAATTTCACACAGGAAACAGCATATGACCATGATTACGCCAAGCTCGAAATTAACCCTCACTAAAGGGAACAAAAGCTGGAGCTCTTAAGCTTTCGCTCGGTGGCTGCAATTCGAAATTGAGTACTTGCCGATCGGCCGGTCTCGTGCAAGGATCACCTCATCCGCAATTCAAATCAGAGGAGGCGTAAGATGGATTCCAATCTCGTGTTTGTGCGCCTCTGCGGCGGAACGGCTATCACGCCTTCGATGCGTAGCGCATCTCGTTTCAGCCGCTACTGATCCAAGGCTCACAAGCCCGCAATTCCGCCATTTGGCGATCCCCTTTTTACCTGACGTGACCGGATGACGGGGCGATTGTTCGCATTTTTGCGTTCCGCATCCGCACGTCTCTGATCCTCGAAAGGACCTGGCTGCGTCACTGCGCCGGGACGGACAGTCATGCGTGAACCACAAGCTATCTAGACTGCAGATGGTGAGCAAGGGCGAGGAGCTGTTCA (double strand) [SMb20647] | binds more weakly |
| AGCGGATAACAATTTCACACAGGAAACAGCATATGACCATGATTACGCCAAGCTCGAAATTAACCCTCACTAAAGGGAACAAAAGCTGGAGCTCTTAAGCTTTCGGCCACCTCTCCGTTAGCGCCTGACTAGTGTCACGGCGTTTCCAATGCAAGATTTTTTTGTCGAATTTCAGGAAATCATCCGATTTTCATCCGCTTCGGGCCGCGGCGCCCCCCGAGTCATATGAGAACTAGGACCGCATCGGGCAATCGGGAAAGGTCTTGTCCGTCGCGCATGAAACGTCACAACGCCAAGTGCACTGACTTCTTCCGGGGGAATTCTTTCTCTGCGTCGATTCCGATTCCCATCCTTATGCGATAAGTTCCGCGGGCATTTCCGAACGGAGTACGGTTTTTCAAGATGTCCGCATTCTCACGCTTCACGCTCTAGACTGCAGATGGTGAGCAAGGGCGAGGAGCTGTTCA (double strand) [hisC4] | binds more weakly |

A negative result means that nothing was seen under these conditions. Protein sequences can lack the tags named with them. A weaker result is weaker than the reference pair of the same experiment.
